In PubChem BioAssay AID1434 (Sanford-Burnham Center for Chemical Genomics, 2008) one finds inhibition data, which are given here for one molecule.

Sequences of proteins named here, by UniProt entry; tags and fusion partners are left off.
UniProt Q01196, whole entry, looked up: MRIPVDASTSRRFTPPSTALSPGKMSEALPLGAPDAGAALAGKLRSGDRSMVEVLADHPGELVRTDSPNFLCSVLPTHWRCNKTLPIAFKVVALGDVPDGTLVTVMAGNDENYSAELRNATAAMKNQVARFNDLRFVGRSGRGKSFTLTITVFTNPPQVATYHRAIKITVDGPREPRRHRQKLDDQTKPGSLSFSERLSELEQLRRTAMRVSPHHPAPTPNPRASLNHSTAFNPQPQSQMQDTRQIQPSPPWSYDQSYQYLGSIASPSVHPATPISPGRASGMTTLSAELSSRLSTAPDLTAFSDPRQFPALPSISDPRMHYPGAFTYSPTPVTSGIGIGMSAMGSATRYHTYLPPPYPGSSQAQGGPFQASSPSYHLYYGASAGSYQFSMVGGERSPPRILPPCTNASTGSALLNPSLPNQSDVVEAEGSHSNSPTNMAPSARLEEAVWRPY
UniProt Q13951, whole entry, looked up: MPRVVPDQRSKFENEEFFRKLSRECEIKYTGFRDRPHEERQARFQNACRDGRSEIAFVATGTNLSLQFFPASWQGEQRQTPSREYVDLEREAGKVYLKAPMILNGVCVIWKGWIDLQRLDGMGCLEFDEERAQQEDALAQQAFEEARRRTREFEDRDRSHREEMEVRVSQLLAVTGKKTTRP

SMILES strings stand for the structures. The list shows a part of the results.

The test concerns the target Runt-related transcription factor 1 (Homo sapiens) + Core-binding factor subunit beta (Homo sapiens) (UniProt Q01196+Q13951). Briefly: inhibitors of RUNX1 Runt–CBFb-SMMHC binding, primary screen, biochemical, FRET, Cerulean-Runt, Venus-CBFb-SMMHC, uHTS (AID 1434).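 Note: 0% = DMSO wells and 100% = wells with excess untagged CBFb-SMMHC; inhibitors lower the FRET ratio by blocking Runt binding to CBFb-SMMHC.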 Conditions: Cerulean-Runt/Venus-CBFb-SMMHC FRET ratio 530/480, 1 h; retest duplicate average; at 20 µM; stronger effect = higher value.
What is called inhibition is the relative decrease from the control value, in per cent. Regarding `O=P(Nc1nccs1)(c1ccccc1)c1nc2ccccc2s1` (stereo unspecified), the inhibition is 64.2%.
